Earlier results as cited in patent US11525165B2, “Method of selection of an IRE1-inhibitor therapy for patient suffering from cancer” (INSERM (INSTITUT NATIONAL DE LA SANTÉ ET DE LA RECHERCHE …, priority 2017, dated 2022).
At least one compound was matched to its structure with a doubt left.

Conditions: combined therapy (surgery, radiation plus TMZ) in GBM patients; 12.1 months without TMZ; cited from earlier work

SMILES: Cn1nnc2c(C(N)=O)ncn2c1=O [temozolomide]
- patient's median survival: 14.6 months
